Consider three compounds from PubChem BioAssay AID926 (National Center for Advancing Translational Sciences (NCATS), 2007).

Structures are written as SMILES. This is one part of the list.

This experiment in a line: qHTS Assay for Agonists of the Thyroid Stimulating Hormone Receptor.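 Further: the control signal comes from parental cells without the receptor; % of control where 0% means no effect.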 As to conditions: HEK293-CNG-TSHR cells (CNG channel as cAMP sensor), membrane potential dye, cAMP; measured here: parental cells max response. On the technique in general: qHTS replaces the single test concentration by a dilution series.
Turning to `O=C(OC1CN2CCC1CC2)c1cccc(Cl)c1` (stereo not drawn), the activation worked out at 7.11%. Under `Cc1nn(-c2ccccc2)c2c1P(=O)(N1CCOCC1)N(C)C(c1ccccc1)=N2` (stereo not drawn) stands -0.719%; under `CN(CCCl)Cc1cc(Cl)c(NC2=NCCN2)c(Cl)c1`, -3.35%.
